According to PMC8750527 (Cancers, 2021):

Tests used:
[1] = tested on: cocultures of HD-MB03 or DAOY with C8-D1A cells; test: 2D coculture of MB cells and astrocytes, FACS quantification; assay type: cell-based; settings: axitinib 5 µM or etoposide 1 µM
Experimental: (§1) C8-D1A cells were stained with the green fluorescent probe neuro-DiO (cat. number 60015, Biotium, Fremont, CA, USA) according to the manufacturer’s protocol. C8-D1A-neuroDio cells (150,000) and HD-MB03-mCherry or DAOY-mCherry cells (50,000) were plated in 12-well plates. […] Fluorescence images of the cells were taken with a DMI400 inverted microscope (Leica Microsystemes SAS, Nanterre, France) equipped with a 40× objective and a Zyla 5.5 camera (Andor Technologies, Belfast, UK). The cells were then trypsinized and the number of both cell types was quantified using a Melody FACS (BD Biosciences, Frankton Lake, NJ, USA) with a 488 nm laser beam. Analysis of the FACS data was conducted with the Flowjo software (Tree Star Inc., Ashland, OR, USA).

CHLA-01-Med = test: MTT assay, 48 h exposure, CHLA-01-Med MB cells; assay type: cell-based, human
Experimental: (§2) HDF (3000 cells), C8-D1A (5000 cells), D458 (5000 cells), DAOY (2000 cells), HD-MB03 (10,000 cells) and CHLA-01-Med (10,000 cells) were seeded at an approximate confluency of 50% in 96-well plates (Corning Inc., Corning, NY, USA) in 100 µL medium per well. A range from 50 nM to 150 µM of every drug was tested. The effects of the antiangiogenic compounds were measured using a 3-[4,5-dimethylthiazol-2yl]-diphenyltetrazolium bromide (MTT) colorimetric assay (Sigma, Lyon, France) according to the manufacturer’s instructions. When applicable, IC50 was calculated using the nonlinear regression method of the Prism 5 software (Graphpad Software Inc., San Diego, CA, USA). Alternatively, hCMEC/D3 [23] or HUVEC cells were plated at 5000 cells/well and incubated 24 h later for 2 and 3 days with 1, 5 or 25 µM of axitinib. An MTT assay was conducted as described above to assess the fitness of the cells.

C8-D1A = test: MTT assay, 48 h exposure, murine primary astrocytes; assay type: cell-based; settings: Mus musculus, Table 1, normal cells, mean ± SEM, read-out: IC50 (µM) C8D1A
Experimental: as §2

HDF = test: MTT assay, 48 h exposure, human dermal fibroblasts; assay type: cell-based; settings: Table 1, normal cells, mean ± SEM
Experimental: as §2

DAOY = test: MTT assay, 48 h exposure, DAOY MB cells; assay type: cell-based, human
Experimental: as §2

HD-MB03 = test: MTT assay, 48 h exposure, HD-MB03 MB cells; assay type: cell-based, human
Experimental: as §2

D458 = test: MTT assay, 48 h exposure, D458 MB cells; assay type: cell-based, human
Experimental: as §2

[2] = tested on: C8-D1A/HD-MB03 mixed spheroids; test: 3D mixed spheroids of astrocytes and MB cells; assay type: cell-based; settings: 7 days; axitinib 5 µM or etoposide 1 µM
Experimental: as §1
Two thousand cells were seeded in ultralow-adhesion 96-well plates (Corning Inc., Corning, NY, USA). […] Pictures were taken with an AMG Evos microscope 40× objective (Thermo Fisher Scientific Inc, Waltham, MA, USA) and the spheroid areas were measured using the ImageJ software (NIH, Bethesda, MD, USA).

[3] = Homo sapiens, Table 1, MTT, 48 h exposure, mean ± SEM

Structure (SMILES): CNC(=O)c1ccccc1Sc1ccc2c(/C=C/c3ccccn3)n[nH]c2c1 [Axitinib, axitinib]
- enrichment of the proportion of astrocytes relative to the total number of cells [1]: 40–60%
- IC50 (CHLA-01-Med; [3]): 3.9 ± 0.23 µM
- Specificity Index relative to C8D1A, CHLA-01-Med (CHLA-01-Med; ratio IC50 C8-D1A / IC50 CHLA-01-Med): >25
- Specificity Index relative to HDF, CHLA-01-Med (CHLA-01-Med; ratio IC50 HDF / IC50 CHLA-01-Med): >25
- IC50 (C8-D1A): > 100 µM
- IC50 (HDF): > 100 µM
- Specificity Index relative to C8D1A, DAOY (DAOY; ratio IC50 C8-D1A / IC50 DAOY): >40
- Specificity Index relative to HDF, DAOY (DAOY; ratio IC50 HDF / IC50 DAOY): >40
- IC50 (HD-MB03; Homo sapiens, HD-MB03, Table 1, MTT, 48 h exposure, mean ± SEM): 0.47 ± 0.2 µM
- Specificity Index relative to C8D1A, HDMB (HD-MB03; ratio IC50 C8-D1A / IC50 HD-MB03): >200
- Specificity Index relative to HDF, HD-MB03 (HD-MB03; ratio IC50 HDF / IC50 HD-MB03): >200
- IC50 (D458; [3]): 0.49 ± 0.4 µM
- Specificity Index relative to C8D1A, D458 (D458; ratio IC50 C8-D1A / IC50 D458): >200
- Specificity Index relative to HDF, D458 (D458; ratio IC50 HDF / IC50 D458): >200
- relative fluorescence of MB vs. normal cells in mixed spheroids [2]: decrease in the relative fluorescence of MB vs. normal cells
